Test results: publication PMC10652042
Results are given in words; binding and its absence hold for the method and conditions named. In cells and extracts the contact can be indirect. A yes stands for co-enrichment or nearness to the bait. Other partners may have been found. For some assays here: Sequences can lack the tags named with a protein.

Amino acid sequences for entries named in this document (tags omitted).
UniProt P63167: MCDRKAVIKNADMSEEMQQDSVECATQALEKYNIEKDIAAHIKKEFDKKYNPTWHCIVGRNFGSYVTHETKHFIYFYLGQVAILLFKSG
UniProt P63168: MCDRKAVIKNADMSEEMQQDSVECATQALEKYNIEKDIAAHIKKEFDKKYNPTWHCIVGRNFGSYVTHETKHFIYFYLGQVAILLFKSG

What was measured:
[1] = target: T1, ACTL7B fused to eGFP (mouse) (UniProt Q9QY83); experiment: affinity purification with mass spectrometry; GFP nanobody-coupled magnetic beads (GFP-Trap) on lysate of HEK cells stably expressing Actl7b-eGFP; eluate in Laemmli's buffer; targeted mass spectrometry analysis
T1 sequence: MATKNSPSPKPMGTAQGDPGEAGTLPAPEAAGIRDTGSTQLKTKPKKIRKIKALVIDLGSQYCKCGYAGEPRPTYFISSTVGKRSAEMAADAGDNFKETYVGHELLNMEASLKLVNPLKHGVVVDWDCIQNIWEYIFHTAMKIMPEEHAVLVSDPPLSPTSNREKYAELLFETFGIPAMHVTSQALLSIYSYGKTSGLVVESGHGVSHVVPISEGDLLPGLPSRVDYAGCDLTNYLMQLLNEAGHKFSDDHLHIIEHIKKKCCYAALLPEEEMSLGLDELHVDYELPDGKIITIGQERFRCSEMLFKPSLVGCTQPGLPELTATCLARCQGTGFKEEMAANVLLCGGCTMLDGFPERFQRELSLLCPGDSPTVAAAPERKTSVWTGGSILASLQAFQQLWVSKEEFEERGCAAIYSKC

[2] = target: T2, ACTL7B (mouse (endogenous in testis)) (UniProt Q9QY83); experiment: affinity purification with mass spectrometry; anti-ACTL7B antibody coupled to Dynabeads, co-immunoprecipitation from protein extracts of whole wild-type mouse testes; uncoupled beads as control; eluate identified by LC/MS
T2 sequence: T1 sequence

binding [1]	binding [2]	Substance
binds	–	DYNLL1 (from UniProt P63167 1-89)
–	binds	dynein light chain 1 (DYNLL1) (from UniProt P63168 1-89)
